Measured values: patent US10420844B2 (Mederis Diabetes LLC, priority 2011, dated 2019)
Non-standard residues stand in square brackets, D forms with d. No end group written: not given here. Nle = CCCC[C@H](N)C(=O)O; Ac5c = NC1(C(=O)O)CCCC1; Aib = CC(C)(N)C(=O)O

Experiment: general procedure: Fmoc solid-phase peptide synthesis; Rink amide resin; DIC/HOBt
Conditions: whole synthesis, analytical hplc/mass spectrometry, scale of the general procedure 0.3 mmol

Substance | final LC-MS purity
[Ac5c]V[Aib]EIQL[Nle]HQRARWIQK | >97%
His-Aib-Gln-Gly-Thr-Phe-Thr-Ser-Asp-Bip-Ser-Lys-Tyr-Leu-Glu-Ser-Lys | 98.03%
